Experimental data: PubChem BioAssay (Tox21)
Inconclusive results, whose numbers are uncertain, are shown with a selection of clear calls. A potency beside an inconclusive call is a rough fit, not a confirmed value. Active and inactive are the calls of the source. Calls follow the shape of the full dose curve.

Assay: p53 small molecule agonists, cell-based qHTS assay: qHTS cell viability counter screen (AID 1963581); also: nearly all actives have a fitted effect of over 45% in size
Details: p53RE-bla HCT-116 viability, ATP luminescence, 16 h; series mostly up to 66 µM; activity change, negative = cytotoxicity: at the top concentration
Text: National Center for Advancing Translational Sciences [NCATS]
Division of Preclinical Innovation [DPI]
U.S. Environmental Protection Agency [EPA]
National Institutes of Environmental Health Sciences [NIEHS]
National Toxicology Program [NTP]
U.S. Food and Drug Administration [FDA]
p53, a tumor suppressor protein, is activated following cellular insult, including DNA damage and other cellular stresses. The activation of p53 regulates cell fate by inducing DNA repair, cell cycle arrest, apoptosis, or cellular senescence. The activation of p53, therefore, is a good indicator of DNA damage and other cellular stresses. The CellSensor p53RE-bla HCT-116 cell line (Invitrogen) contains a stably integrated beta-lactamase reporter gene under control of the p53 response elements. The activation of the reporter gene under culture conditions can be detected by fluorescence intensity. This cell line was used to screen the Tox21 compound library in a 1536-well plate format and to identify agonists that activate the p53 signaling pathway. The cytotoxicity of the Tox21 compound library against the p53 RE-bla HCT-116 cell line was tested in parallel by measuring the intra cellular ATP content in the same wells.
Tox21 Assay Protocol Summary:
The p53RE-bla cells were dispensed at 4,000 cells/5 ul/well in 1536-well black wall/clear bottom plates using a Multidrop dispenser. After the assay plates were incubated at a 37 C/5% CO2 incubator for 5 hours, 23 nL of compounds dissolved in DMSO, positive controls or DMSO only was transferred to the assay plate by a pin tool. The plates were incubated at 37 C for 16 hours. After 1 uL of LiveBLAzerTM B/G FRET substrate was added using a Flying Reagent Dispenser, the plates were incubated at room temperature for 2 hours, and fluorescence intensity was measured by an Envision plate reader. For cell viability readout that measures cytotoxicity, 4 ul/well of CellTiter-Glo reagent was added into the assay plates using a Flying Reagent Dispenser. After 30 min incubation at room temperature, the luminescence intensity in the plates was measured using a ViewLux plate reader.
% is scaled to controls: 0 for no effect and ±100 for the full control effect; potency is read from the fitted curve at half-maximal effect.

SMILES | activity change, negative = cytotoxicity | Potency
CCCCCCCCCCCCCCC[C@H](O)[C@@H](N)CO | inactive: -4.57% [at 30.3 µM] | 
CN1CCC(=C2c3ccccc3CCc3sccc32)CC1 |  | inconclusive: 0.354 µM [rising, full curve, poor fit]
Cc1cc2nc3ccc(=[N+](C)C)cc-3sc2cc1N |  | inconclusive: 14.1 µM [cytotoxic, partial curve, poor fit]
NS(=O)(=O)c1cc(C(=O)O)cc(N2CCCC2)c1Oc1ccccc1 |  | inconclusive: 0.793 µM [rising, full curve, poor fit]
COc1ccc(CCC(=O)c2c(O)cc(O[C@@H]3O[C@H](CO)[C@@H](O)[C@H](O)[C@H]3O[C@@H]3O[C@@H](C)[C@H](O)[C@@H](O)[C@H]3O)cc2O)cc1O |  | inconclusive: 0.364 µM [cytotoxic, partial curve, poor fit]
OCCN1CCN(CCO)CC1 | inactive: 20.1% | 
C=C(CC)C(=O)c1ccc(OCC(=O)O)c(Cl)c1Cl |  | inconclusive: 51 µM [cytotoxic, single point]
C=C(C)C(=O)OC | inactive: -14.3% | 
COc1ccc(NS(=O)(=O)c2ccc(N)cc2)nn1 | inactive: -10.7% [at 30.3 µM] | 
Oc1ccc(C2(c3ccc(O)cc3)CC3CC2C2CCCC32)cc1 (stereo not given) |  | active: 34.9 µM
Oc1ccccc1C=NCc1ccccc1 | inactive: -4.11% [at 30.3 µM] | 
CCCCCN(CCCCC)C(=O)C(CCC(=O)O)NC(=O)c1ccc(Cl)c(Cl)c1 (stereo not given) |  | inconclusive: 25.1 µM [cytotoxic, single point]
CC[C@H]1CC[C@H](NCc2cc3c(cc2OC)[C@H]2C[C@H]2C(=O)N3C)[C@H](c2ccccc2)N1 |  | inconclusive: 6.46 µM [rising, full curve]
COc1ccc(C(=O)c2ccc(C)cc2)c(O)c1 | inactive: -1.92% | 
On1ccccc1=S |  | inconclusive: 50.8 µM [cytotoxic, single point]
ClC/C=C\CCl | inactive: -4.04% | 
CCCCCCOc1cc(C)c(O)c(C)c1C |  | inconclusive: 52 µM [cytotoxic, single point]
CC1=C(C(=O)OC(C)C)C(c2cccc([N+](=O)[O-])c2)C(C(=O)OC2CN(C(c3ccccc3)c3ccccc3)C2)=C(N)N1 (stereo not given) |  | active: 11.2 µM
CN(C)Cc1ccccc1 |  | inconclusive: 1.84 µM [cytotoxic, single point]
O=c1[nH]cnc2c1ncn2[C@H]1CC[C@@H](CO)O1 |  | inconclusive: 18.2 µM [rising, single point]

Quoted at random: two entries already listed.
SMILES | activity change, negative = cytotoxicity | Potency
On1ccccc1=S |  | inconclusive: 50.8 µM [cytotoxic, single point]
CC1=C(C(=O)OC(C)C)C(c2cccc([N+](=O)[O-])c2)C(C(=O)OC2CN(C(c3ccccc3)c3ccccc3)C2)=C(N)N1 (stereo not given) |  | active: 11.2 µM

The list goes on.

SMILES | activity change, negative = cytotoxicity | Potency
CSc1cnc(C)cn1 |  | inconclusive: 18.7 µM [rising, single point]
O=c1[nH]c2ccccc2n1CCCN1CCN(C(c2ccccc2)c2ccccc2)CC1 |  | inconclusive: 8.9 µM [rising, single point]
C=CC(=O)OCCn1c(=O)n(CCOC(=O)C=C)c(=O)n(CCOC(=O)C=C)c1=O |  | inconclusive: 51.3 µM [cytotoxic, single point]
O=C(Nc1cccc(C(F)(F)F)c1)c1cc(Br)cc(Br)c1O |  | inconclusive: 3.24 µM [cytotoxic, full curve]
Cc1cc(CCN2CCN(c3nsc4ccccc34)CC2)cc2c1NC(=O)CC2(C)C |  | active: 45.8 µM
OC[C@@H](O)[C@@H](O)[C@H](O)[C@@H](O)CO |  | inconclusive: 10.4 µM [cytotoxic, single point]
ICCc1ccccc1 |  | inconclusive: 44.8 µM [cytotoxic, partial curve, poor fit]
O=C(O)Cc1cc(I)c(Oc2ccc(O)c(I)c2)c(I)c1 |  | inconclusive: 6.46 µM [cytotoxic, full curve]
Cc1nc(Nc2ncc(C(=O)Nc3c(C)cccc3Cl)s2)cc(N2CCN(CCO)CC2)n1 |  | inconclusive: 0.063 µM [rising, full curve]
CCc1ccc(C)cc1 |  | inconclusive: 0.903 µM [cytotoxic, single point]
CCN(CC)CCOC(=O)C(c1ccccc1)C1CCCCC1 (stereo not given) |  | inconclusive: 3.16 µM [rising, full curve, poor fit]
CN(C)CC/C=C1\c2ccccc2Sc2ccc(Cl)cc21 | inactive: 9.21% [at 30.3 µM] | 
CCCCCCCCCCCCCC[N+](C)(C)C |  | inconclusive: 8.82 µM [rising, full curve, poor fit]
Cc1cc(O)ccc1N |  | inconclusive: 5.16 µM [rising, full curve]
NCc1cccc(CN)c1 |  | inconclusive: 10.5 µM [cytotoxic, single point]
CCCCCCCCCCCC(=O)NCCCN(C)C |  | active: 32.4 µM
CS(=O)(=O)c1ccc([C@@H](O)[C@@H](CF)NC(=O)C(Cl)Cl)cc1 | inactive: 9.38% [at 30.3 µM] | 
Oc1ccc2c(c1)-c1ccccc1C2 |  | inconclusive: 51.3 µM [rising, single point]
CCCCCN(CCCOC)C(=O)C(CCC(=O)O)NC(=O)c1ccc(Cl)c(Cl)c1 (stereo not given) | inactive: -10.8% [at 30.3 µM] | 
O=C(c1ccc(O)cc1)c1ccc(O)cc1 |  | inconclusive: 45.7 µM [rising, single point]
